Where “and” joins values, the source holds several entries; their conditions need not be identical. Equal values may be shown once.
Test system: BHK-21 cells
Assay: Confocal colocalization microscopy with MitoTracker Red
Format: cell-based
Settings: 0.3 μM Mitotracker Red, incubation 15 min

Row | SMILES | Pearson's correlation coefficient with MitoTracker Red (2 μM dye) | Pearson's correlation coefficient with MitoTracker Red (0.2 μM dye)
1 | COc1ccc(-c2cccc3c4cc(C)ccc4cc(-c4ccccc4)[n+]23)cc1.O=S(=O)([O-])C(F)(F)F [2m, 4-(4-methoxyphenyl)-10-methyl-6-phenylpyrido[2,1-a]isoquinolin-5-ium trifluoro methanesulfonate] | 0.94 and 0.94±0.04 | 
2 | COc1ccc(-c2cccc3c4cc(OC)cc(OC)c4cc(-c4ccccc4)[n+]23)cc1.O=S(=O)([O-])C(F)(F)F [2u, 8,10-dimethoxy-4-(4-methoxyphenyl)-6-phenylpyrido[2,1-a]isoquinolin-5-ium trifluoromethanesulfonate] | 0.95 | 0.95±0.02

From patent publication US20240400559A1, “SOLID STATE EMITTERS BASED ON PYRIDINIUM SCAFFOLDS” (Council of Scientific and Industrial Research, priority 2021, published 2024)
